The values below come from PubChem BioAssay AID298 (DTP/NCI, 2004).

This assay relates to MX-1 breast xenograft, intrarenal, nude mice, tumor weight. In words: NCI In Vivo Anticancer Drug Screen. Data for tumor model Human Mammary Carcinoma MX-1 Xenograft (intrarenal inoculation) in NU/NU BALB/C (nude) mice. The note with it: T/C endpoint: mean tumor weight change, higher T/C = larger tumour; for T/C: evaluated on day 11. The essentials: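 Mice w/ transplanted tumors, drug vs vehicle; endpoint survival or tumor size; value = T/C.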
For orientation: In xenograft studies the graft and the host belong to different species.

Where [1] appears, read: dose: 300.0 mg/kg/injection, schedule: Q04DX003 (ip), vehicle: saline.
Setting [2] is: dose: 16.0 mg/kg/injection, schedule: Q04DX003 (ip), vehicle: water.
[3] abbreviates: dose: 600.0 mg/kg/injection, schedule: Q04DX003 (ip), vehicle: other.

The list does not hold the whole screen: it gathers tests that were run many times, whatever their T/C, doses with no T/C, and many T/C values between a quarter and a half above the control. Further doses and runs are listed elsewhere. T/C is the treated group as % of the vehicle group. Schedules are NCI's codes, read here as Q, the interval in days (D) or hours (H), X, the number of doses. Some doses have a count of surviving animals in place of a T/C: the source files T/C as zero there, which appears to mark a toxic dose or a test without result, not a measured value. Counts of survivors are from the toxicity check (mostly the fifth day) where no day follows; animals may have died later. Some entries hold several experiments; the values are given in rising order. Some molecules as drawn cover several salts, stereoisomers or complexes of the source; a dose is that of the sample tested.

For `Cn1c(-c2ccc(/C=N\N3CCN(/N=C/c4ccc(-c5c[n+]6ccsc6n5C)cc4)CC3)cc2)c[n+]2ccsc12`, the survivor count is, setting by setting: (dose: 6.0 mg/kg/injection, schedule: Q04DX003 (ip), vehicle: saline with Tween-80) 1 of 6 on day 11; (dose: 12.0 mg/kg/injection, schedule: Q04DX003 (ip), vehicle: saline with Tween-80) 0 of 6 on day 11; (dose: 24.0 mg/kg/injection, schedule: Q04DX003 (ip), vehicle: saline with Tween-80) 0 of 6 on day 11.
`Cc1ccc(C2=CSC3=NCCN23)cc1Cl`: the survivor count is recorded as 0 of 6 on day 11 (dose: 75.0 mg/kg/injection, schedule: Q04DX003 (ip), vehicle: saline); 0 of 6 on day 11 (dose: 150.0 mg/kg/injection, schedule: Q04DX003 (ip), vehicle: saline); 0 of 6 on day 11 under setting [1].
As for `CO[C@H](/C(C)=C/C=C/C(C)=C/c1coc(C)n1)[C@H](C)[C@H]1C[C@@H](O)[C@@]2(C)O[C@H]2/C=C/[C@@H](C)[C@@H]2C[C@@H](CC(=O)O2)C[C@H]2O[C@@H]2C(=O)O1`, the survivor count reads like this: (dose: 1.0 mg/kg/injection, schedule: Q04DX003 (sc), vehicle: Klucel (hydroxypropylcellulose) (HPC)) 3 of 6 on day 11; (dose: 2.0 mg/kg/injection, schedule: Q04DX003 (ip), vehicle: Klucel (hydroxypropylcellulose) (HPC)) 0 of 6 on day 11; (dose: 2.0 mg/kg/injection, schedule: Q04DX003 (sc), vehicle: Klucel (hydroxypropylcellulose) (HPC)) 1 of 6 on day 11.
With `Clc1ccc(CN2COc3c(ccc4cccnc34)C2)cc1Cl`, the T/C (dose: 200.0 mg/kg/injection, schedule: Q01DX010 (sc), vehicle: saline with Tween-80) was 134 % of control.
Regarding `[NH-]C(CCC(N)=O)C(=O)O.[NH-]C(CCC(N)=O)C(=O)O.[Zn+2]` (centres undefined), the survivor count is 0 of 6 on day 11 (dose: 150.0 mg/kg/injection, schedule: Q04DX003 (ip), vehicle: saline with Tween-80); 0 of 6 on day 11 (dose: 300.0 mg/kg/injection, schedule: Q04DX003 (ip), vehicle: saline with Tween-80); 0 of 6 on day 11 (dose: 600.0 mg/kg/injection, schedule: Q04DX003 (ip), vehicle: saline with Tween-80).
In the case of `[N-]=[N+]=[N-]`, under “dose: 3.0 mg/kg/injection, schedule: Q04DX003 (ip), vehicle: water”, the T/C was 136 % of control. The survivor count by setting is: (dose: 24.0 mg/kg/injection, schedule: Q04DX003 (ip), vehicle: water) 0 of 6 on day 11; (dose: 48.0 mg/kg/injection, schedule: Q04DX003 (ip), vehicle: water) 0 of 6 on day 11.
Regarding `CO[C@@]12[C@H](COC(N)=O)C3=C(C(=O)C(C)=C(N)C3=O)N1C[C@@H]1N[C@@H]12`, the survivor count runs as follows: (dose: 12.0 mg/kg/injection, schedule: Q04DX003 (ip), vehicle: suspension in saline) 0 of 6 on day 11; (dose: 24.0 mg/kg/injection, schedule: Q04DX003 (ip), vehicle: suspension in saline) 1 of 6 on day 11.
On to `O=C(NC(Cc1ccc(I)cc1)C(=O)O)c1cccc(Br)c1` (centres undefined), for which the survivor count (dose: 1200.0 mg/kg/injection, schedule: Q04DX003 (ip), vehicle: Klucel (hydroxypropylcellulose) (HPC)) is listed as 0 of 6 on day 11.
For `COc1cccc2c1C(=O)c1c(O)c3c(c(O)c1C2=O)C[C@@](O)(C(=O)CO)C[C@@H]3OC1CC(N)C(O)C(C)O1` (some centres undefined), the survivor count under setting [2] is 0 of 6 on day 11.
For the compound `N=C(N)c1ccc(Nc2ccc(-c3cc4ccc(C(=N)N)cc4[nH]3)cc2)cc1`, the survivor count (dose: 30.0 mg/kg/injection, schedule: Q04DX003 (ip), vehicle: saline) is 3 of 6 on day 11.
Turning to `Cc1noc2nc(-c3ccccc3)cc(N3CCN(C)CC3)c12`, under setting [3], the survivor count is 1 of 6 on day 11.
With `C=COC(=O)C(Cc1ccccc1)NC(=O)OCc1ccccc1` (centres undefined), the survivor count (dose: 2400.0 mg/kg/injection, schedule: Q04DX003 (sc), vehicle: saline with Tween-80) is given as 1 of 6 on day 11.
Regarding `CN(C)c1ccc(C(=C2C=CC(=[N+](C)C)C=C2)c2ccc(N(C)C)cc2)cc1` (tested in a mixture with another compound), the survivor count runs as follows: (dose: 300.0 mg/kg/injection, schedule: Q04DX003 (sc), vehicle: saline with Tween-80) 3 of 6 on day 11; (dose: 600.0 mg/kg/injection, schedule: Q04DX003 (sc), vehicle: saline with Tween-80) 2 of 6 on day 11; (dose: 1200.0 mg/kg/injection, schedule: Q04DX003 (sc), vehicle: saline with Tween-80) 0 of 6 on day 11.
Turning to `N#Cc1c(N)[nH]c2ccc(Sc3ccccc3)cc12`, the survivor count (dose: 240.0 mg/kg/injection, schedule: Q04DX003 (ip), vehicle: saline with Tween-80) was 3 of 5 on day 11.
Turning to `CN1CCN(CN2C(=O)C3C4C=CC(C3C2=O)C2C3C(=O)N(CN5CCN(C)CC5)C(=O)C3C42)CC1` (centres undefined), the survivor count runs as follows: (dose: 150.0 mg/kg/injection, schedule: Q04DX003 (ip), vehicle: other) 0 of 6 on day 11; (dose: 150.0 mg/kg/injection, schedule: Q04DX003 (ip), vehicle: water) 2 of 6 on day 11; (dose: 200.0 mg/kg/injection, schedule: Q04DX003 (ip), vehicle: water) 0 of 6 on day 11; (dose: 300.0 mg/kg/injection, schedule: Q04DX003 (ip), vehicle: other) 0 of 6 on day 11; (dose: 300.0 mg/kg/injection, schedule: Q04DX003 (ip), vehicle: water) 0 of 6 on day 11; under setting [3], 0 of 6 on day 11. Besides, where the note is “dose: 600.0 mg/kg/injection, schedule: Q04DX003 (ip), vehicle: water”, the survivor count is reported as 0 of 6 on day 11.
Take `COC(COC(=O)N1CCN(C=O)CC1)C1=C(N2CC2)C(=O)C(C)=C(N2CC2)C1=O` (centres undefined): the survivor count (dose: 24.0 mg/kg/injection, schedule: Q04DX003 (ip), vehicle: saline) is 0 of 6 on day 11 and 1 of 6 on day 11.
For `Nc1c(/C=C/c2cc3cc(C4=NCCN4)ccc3o2)[nH]c2cc(C3=NCCN3)ccc12`, the survivor count (dose: 300.0 mg/kg/injection, schedule: Q04DX003 (ip), vehicle: Klucel (hydroxypropylcellulose) (HPC)) is reported as 0 of 6 on day 11.
For `Nc1ccn([C@@H](C=O)C[C@@H](C=O)CO)c(=O)n1`, the survivor count is 2 of 6 on day 11 under setting [1] and 0 of 6 on day 11 (dose: 600.0 mg/kg/injection, schedule: Q04DX003 (ip), vehicle: saline).
With `CC(=O)/C(=C\c1ccc(/C=C(\C(C)=O)C(=O)CCN(C)C)cc1)C(=O)CCN(C)C`, the T/C was 126 % of control (dose: 400.0 mg/kg/injection, schedule: Q04DX003 (ip), vehicle: saline with Tween-80) and 127 % of control (dose: 800.0 mg/kg/injection, schedule: Q04DX003 (ip), vehicle: saline with Tween-80).
As to `Cc1ccc(C(=O)NC2C(=O)NC(C(C)C)C(=O)N3CCCC3C(=O)N(C)CC(=O)N(C)C(C(C)C)C(=O)OC2C)c2c1Oc1c(c(C(=O)NC3C(=O)NC(C(C)C)C(=O)N4CCCC4C(=O)N(C)CC(=O)N(C)C(C(C)C)C(=O)OC3C)c3nc(-c4ccccc4)c(=O)oc3c1C)N2` (centres undefined), the survivor count (dose: 2.0 mg/kg/injection, schedule: Q04DX003 (ip), vehicle: water) was 0 of 6 on day 11 and 1 of 6 on day 11; the survivor count (dose: 4.0 mg/kg/injection, schedule: Q04DX003 (ip), vehicle: water) is 0 of 6 on day 11 and 1 of 6 on day 11; the survivor count (dose: 8.0 mg/kg/injection, schedule: Q04DX003 (ip), vehicle: water) is 0 of 6 on day 11; the survivor count under setting [2] is given as 0 of 6 on day 11.
With `CC(C)NC(=O)N(CCCCBr)N=O`, the survivor count reads like this: (dose: 600.0 mg/kg/injection, schedule: Q04DX003 (sc), vehicle: Klucel (hydroxypropylcellulose) (HPC)) 0 of 3 on day 11; (dose: 1200.0 mg/kg/injection, schedule: Q04DX003 (sc), vehicle: Klucel (hydroxypropylcellulose) (HPC)) 0 of 3 on day 11.
With `O=c1[nH]cnc2c1cnn2CN1CCOCC1`, the T/C (dose: 75.0 mg/kg/injection, schedule: Q04DX003 (ip), vehicle: Klucel (hydroxypropylcellulose) (HPC)) is 125 % of control. For the setting “dose: 600.0 mg/kg/injection, schedule: Q04DX003 (ip), vehicle: Klucel (hydroxypropylcellulose) (HPC)”, the survivor count is reported as 1 of 6 on day 11.
As for `C/C(=N\NC(=O)c1ccccc1O)c1cccc(/C(C)=N/NC(=O)c2ccccc2O)n1`, the survivor count (dose: 200.0 mg/kg/injection, schedule: Q04DX003 (ip), vehicle: saline) is recorded as 3 of 6 on day 11.
